These results are taken from patent publication EP4115885A1 (Charité - Universitätsmedizin Berlin, priority 2021, dated 2023).

Protein sequences, listed by entry. Tags and fused reporters are not part of them. Lines headed by an entry give the natural chain unless they say otherwise; changes in a name come on top.
UniProt P32246: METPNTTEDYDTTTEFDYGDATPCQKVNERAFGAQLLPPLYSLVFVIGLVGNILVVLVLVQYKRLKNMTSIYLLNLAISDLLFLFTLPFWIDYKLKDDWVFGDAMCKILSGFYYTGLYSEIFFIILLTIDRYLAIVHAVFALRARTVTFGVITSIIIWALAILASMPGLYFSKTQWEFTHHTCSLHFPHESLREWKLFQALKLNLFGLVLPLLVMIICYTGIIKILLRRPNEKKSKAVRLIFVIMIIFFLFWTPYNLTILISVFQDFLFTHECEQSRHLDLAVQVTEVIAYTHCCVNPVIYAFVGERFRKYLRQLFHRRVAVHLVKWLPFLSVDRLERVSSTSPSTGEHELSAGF

One data set deals with CCR1 (Homo sapiens, UniProt P32246). The following applies: at plasma concentrations above 100 ng /mL.
For data set [1] the following is noted: cited from earlier work.

For the molecule `C[C@@H]1CN(Cc2ccc(F)cc2)CCN1C(=O)COc1ccc(Cl)cc1NC(N)=O` [BAY 86-5277, N-[5-chloro-2-[2-[(2R)-4-[(4-fluorophenyl)methyl]-2-methyl-1-piperazinyl]-2-oxoethoxy]phenyl]-urea], the “mean trough CCR1 blockade” value at CCR1 was “at least 90%”. Moreover, the “most common adverse events” value in data set [1] (ER formulation three times per day over 7 days, each 600 mg up to 1200 mg) is “gastrointestinal adverse events including nausea, diarrhea and vomiting”. For the same molecule, the “safety with respect to vital signs, ECG and safety laboratory parameters” value in data set [1] (single dose i.v. and oral liquid formulation, IR and ER tablets, all doses tested, healthy volunteers) is given as “found safe”.
